Results: article PMC3291536
Results are given in words; binding and its absence hold for the method and conditions named. In cells and extracts the contact can be indirect. These calls come from enrichment with a bait or labelling near it, and not all partners need be listed. Where a sequence is shown, tags or fusion partners need not be part of it.

Target: T1, Flag-Ha tagged HAN11 (UniProt P61962)
T1 sequence: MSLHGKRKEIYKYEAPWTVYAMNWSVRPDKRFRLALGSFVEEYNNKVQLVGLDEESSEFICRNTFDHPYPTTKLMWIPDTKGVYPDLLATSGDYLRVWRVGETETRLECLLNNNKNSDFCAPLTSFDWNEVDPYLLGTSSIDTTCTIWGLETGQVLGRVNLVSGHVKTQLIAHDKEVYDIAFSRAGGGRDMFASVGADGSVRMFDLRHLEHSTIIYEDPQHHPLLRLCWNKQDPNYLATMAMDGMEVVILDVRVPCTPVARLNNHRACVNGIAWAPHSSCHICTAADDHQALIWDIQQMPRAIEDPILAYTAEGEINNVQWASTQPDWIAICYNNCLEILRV
Test: affinity purification with mass spectrometry; double-tag purification of Flag-Ha tagged HAN11 from HEK293 cells with anti-Flag (M2) and anti-HA (12CA5) antibodies; mass spectrometry of co-purified proteins

binding: binds
B1: REST (Neuron-Restrictive Silencing Factor) (protein, UniProt Q13127 1-1097)
chain: MATQVMGQSSGGGGLFTSSGNIGMALPNDMYDLHDLSKAELAAPQLIMLANVALTGEVNGSCCDYLVGEERQMAELMPVGDNNFSDSEEGEGLEESADIKGEPHGLENMELRSLELSVVEPQPVFEASGAPDIYSSNKDLPPETPGAEDKGKSSKTKPFRCKPCQYEAESEEQFVHHIRVHSAKKFFVEESAEKQAKARESGSSTAEEGDFSKGPIRCDRCGYNTNRYDHYTAHLKHHTRAGDNERVYKCIICTYTTVSEYHWRKHLRNHFPRKVYTCGKCNYFSDRKNNYVQHVRTHTGERPYKCELCPYSSSQKTHLTRHMRTHSGEKPFKCDQCSYVASNQHEVTRHARQVHNGPKPLNCPHCDYKTADRSNFKKHVELHVNPRQFNCPVCDYAASKKCNLQYHFKSKHPTCPNKTMDVSKVKLKKTKKREADLPDNITNEKTEIEQTKIKGDVAGKKNEKSVKAEKRDVSKEKKPSNNVSVIQVTTRTRKSVTEVKEMDVHTGSNSEKFSKTKKSKRKLEVDSHSLHGPVNDEESSTKKKKKVESKSKNNSQEVPKGDSKVEENKKQNTCMKKSTKKKTLKNKSSKKSSKPPQKEPVEKGSAQMDPPQMGPAPTEAVQKGPVQVEPPPPMEHAQMEGAQIRPAPDEPVQMEVVQEGPAQKELLPPVEPAQMVGAQIVLAHMELPPPMETAQTEVAQMGPAPMEPAQMEVAQVESAPMQVVQKEPVQMELSPPMEVVQKEPVQIELSPPMEVVQKEPVKIELSPPIEVVQKEPVQMELSPPMGVVQKEPAQREPPPPREPPLHMEPISKKPPLRKDKKEKSNMQSERARKEQVLIEVGLVPVKDSWLLKESVSTEDLSPPSPPLPKENLREEASGDQKLLNTGEGNKEAPLQKVGAEEADESLPGLAANINESTHISSSGQNLNTPEGETLNGKHQTDSIVCEMKMDTDQNTRENLTGINSTVEEPVSPMLPPSAVEEREAVSKTALASPPATMAANESQEIDEDEGIHSHEGSDLSDNMSEGSDDSGLHGARPVPQESSRKNAKEALAVKAAKGDFVCIFCDRSFRKGKDYSKHLNRHLVNVYYLEEAAQGQE
